The nature of this data set: Reactivity with serine, lysine, tyrosine, threonine, arginine, histidine (1H-NMR, LCMS). Particulars: 250 µM each, 50 mM tris-d11, pH 7.5; up to 12 h.

Entries after “also recorded” stand apart in the source; their conditions may differ.

`O=C([C@H]1O[C@@H]1c1ccccc1)[C@@H]1O[C@H]1c1ccccc1` [DEK 1]: the “reaction with serine, lysine, threonine, tyrosine, arginine, or histidine” value is “No evidence for reaction; also recorded: apparently did not react”.

(Values after article PMC10601815, “αβ,α′β′-Diepoxyketones are mechanism-based inhibitors of nucleophilic cysteine enzymes” (Chemical Communications (Cambridge, England), 2023).)
